These are yes or no findings as the source states them, for the method shown. In cells and extracts the contact can be indirect. Some results given as binding are weak or reduced against the parent protein; the word gives no strength. For some of these results: Tags and fused reporters may be left off the sequences shown.
Experiments:
[1] = target: Sp1 transcription factor (human (endogenous in HUVECs)) (UniProt P08047); assay: co-IP; HUVECs infected with lentivirus expressing vector control, GFP-NLS-BMX or GFP-NES-BMX; lysates in RIPA buffer, Protein A/G magnetic beads, 4°C overnight; precipitating antibody (anti-GFP or anti-Sp1) not told for this panel
[2] = target: Sp1 transcription factor (human (endogenous in HUVECs)) (UniProt P08047); assay: co-IP; HUVECs infected with BMX-WT or BMX-K445R lentivirus; nuclear fractions; immunoprecipitation with anti-Sp1 (IgG as control), immunoblot with anti-BMX, anti-BMXpY566, anti-Sp1 and anti-pY

Chains of the proteins cited; added tags and fusions are not shown.
UniProt P08047: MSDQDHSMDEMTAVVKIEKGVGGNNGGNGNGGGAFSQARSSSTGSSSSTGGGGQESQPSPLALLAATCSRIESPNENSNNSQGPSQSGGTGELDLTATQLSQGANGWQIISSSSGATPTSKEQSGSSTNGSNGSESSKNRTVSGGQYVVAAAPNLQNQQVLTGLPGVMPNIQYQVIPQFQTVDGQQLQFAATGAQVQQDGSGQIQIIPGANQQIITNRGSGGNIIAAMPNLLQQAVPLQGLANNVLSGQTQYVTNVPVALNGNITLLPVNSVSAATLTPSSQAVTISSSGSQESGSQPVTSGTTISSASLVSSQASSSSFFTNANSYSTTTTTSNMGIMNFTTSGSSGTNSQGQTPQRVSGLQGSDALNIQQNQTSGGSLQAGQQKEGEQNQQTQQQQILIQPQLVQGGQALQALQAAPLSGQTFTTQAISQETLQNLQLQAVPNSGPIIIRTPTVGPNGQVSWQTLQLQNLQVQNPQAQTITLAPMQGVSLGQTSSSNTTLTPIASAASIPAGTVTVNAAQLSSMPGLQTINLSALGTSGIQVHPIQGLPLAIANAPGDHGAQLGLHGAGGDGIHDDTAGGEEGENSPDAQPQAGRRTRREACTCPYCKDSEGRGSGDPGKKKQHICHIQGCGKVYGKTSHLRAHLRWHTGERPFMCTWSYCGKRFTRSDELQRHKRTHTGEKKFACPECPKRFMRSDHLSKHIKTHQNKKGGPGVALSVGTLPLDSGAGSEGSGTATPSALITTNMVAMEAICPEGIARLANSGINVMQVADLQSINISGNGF

| binding [1] | binding [2] | Binder |
| --- | --- | --- |
| binds |  | GFP-NLS-BMX (nuclear-targeted BMX) (enzyme, UniProt P51813 1-675) PKKKRKVMDTKSILEELLLKRSQQKKKMSPNNYKERLFVLTKTNLSYYEYDKMKRGSRKGSIEIKKIRCVEKVNLEEQTPVERQYPFQIVYKDGLLYVYASNEESRSQWLKALQKEIRGNPHLLVKYHSGFFVDGKFLCCQQSCKAAPGCTLWEAYANLHTAVNEEKHRVPTFPDRVLKIPRAVPVLKMDAPSSSTTLAQYDNESKKNYGSQPPSSSTSLAQYDSNSKKIYGSQPNFNMQYIPREDFPDWWQVRKLKSSSSSEDVASSNQKERNVNHTTSKISWEFPESSSSEEEENLDDYDWFAGNISRSQSEQLLRQKGKEGAFMVRNSSQVGMYTVSLFSKAVNDKKGTVKHYHVHTNAENKLYLAENYCFDSIPKLIHYHQHNSAGMITRLRHPVSTKANKVPDSVSLGNGIWELKREEITLLKELGSGQFGVVQLGKWKGQYDVAVKMIKEGSMSEDEFFQEAQTMMKLSHPKLVKFYGVCSKEYPIYIVTEYISNGCLLNYLRSHGKGLEPSQLLEMCYDVCEGMAFLESHQFIHRDLAARNCLVDRDLCVKVSDFGMTRYVLDDQYVSSVGTKFPVKWSAPEVFHYFKYSSKSDVWAFGILMWEVFSLGKQPYDLYDNSQVVLKVSQGHRLYRPHLASDTIYQIMYSCWHELPEKRPTFQQLLSSIEPLREKDKH |
|  | binds | wild-type BMX (bone marrow kinase in the X chromosome) (enzyme, UniProt P51813 1-675) MDTKSILEELLLKRSQQKKKMSPNNYKERLFVLTKTNLSYYEYDKMKRGSRKGSIEIKKIRCVEKVNLEEQTPVERQYPFQIVYKDGLLYVYASNEESRSQWLKALQKEIRGNPHLLVKYHSGFFVDGKFLCCQQSCKAAPGCTLWEAYANLHTAVNEEKHRVPTFPDRVLKIPRAVPVLKMDAPSSSTTLAQYDNESKKNYGSQPPSSSTSLAQYDSNSKKIYGSQPNFNMQYIPREDFPDWWQVRKLKSSSSSEDVASSNQKERNVNHTTSKISWEFPESSSSEEEENLDDYDWFAGNISRSQSEQLLRQKGKEGAFMVRNSSQVGMYTVSLFSKAVNDKKGTVKHYHVHTNAENKLYLAENYCFDSIPKLIHYHQHNSAGMITRLRHPVSTKANKVPDSVSLGNGIWELKREEITLLKELGSGQFGVVQLGKWKGQYDVAVKMIKEGSMSEDEFFQEAQTMMKLSHPKLVKFYGVCSKEYPIYIVTEYISNGCLLNYLRSHGKGLEPSQLLEMCYDVCEGMAFLESHQFIHRDLAARNCLVDRDLCVKVSDFGMTRYVLDDQYVSSVGTKFPVKWSAPEVFHYFKYSSKSDVWAFGILMWEVFSLGKQPYDLYDNSQVVLKVSQGHRLYRPHLASDTIYQIMYSCWHELPEKRPTFQQLLSSIEPLREKDKH |
|  | no binding | kinase-dead mutant BMX-K445R (enzyme, UniProt P51813 1-675) MDTKSILEELLLKRSQQKKKMSPNNYKERLFVLTKTNLSYYEYDKMKRGSRKGSIEIKKIRCVEKVNLEEQTPVERQYPFQIVYKDGLLYVYASNEESRSQWLKALQKEIRGNPHLLVKYHSGFFVDGKFLCCQQSCKAAPGCTLWEAYANLHTAVNEEKHRVPTFPDRVLKIPRAVPVLKMDAPSSSTTLAQYDNESKKNYGSQPPSSSTSLAQYDSNSKKIYGSQPNFNMQYIPREDFPDWWQVRKLKSSSSSEDVASSNQKERNVNHTTSKISWEFPESSSSEEEENLDDYDWFAGNISRSQSEQLLRQKGKEGAFMVRNSSQVGMYTVSLFSKAVNDKKGTVKHYHVHTNAENKLYLAENYCFDSIPKLIHYHQHNSAGMITRLRHPVSTKANKVPDSVSLGNGIWELKREEITLLKELGSGQFGVVQLGKWKGQYDVAVRMIKEGSMSEDEFFQEAQTMMKLSHPKLVKFYGVCSKEYPIYIVTEYISNGCLLNYLRSHGKGLEPSQLLEMCYDVCEGMAFLESHQFIHRDLAARNCLVDRDLCVKVSDFGMTRYVLDDQYVSSVGTKFPVKWSAPEVFHYFKYSSKSDVWAFGILMWEVFSLGKQPYDLYDNSQVVLKVSQGHRLYRPHLASDTIYQIMYSCWHELPEKRPTFQQLLSSIEPLREKDKH |
| no binding |  | GFP-NES-BMX (cytoplasm-localized BMX) (enzyme, UniProt P51813 1-675) LSPSLSPLSLMDTKSILEELLLKRSQQKKKMSPNNYKERLFVLTKTNLSYYEYDKMKRGSRKGSIEIKKIRCVEKVNLEEQTPVERQYPFQIVYKDGLLYVYASNEESRSQWLKALQKEIRGNPHLLVKYHSGFFVDGKFLCCQQSCKAAPGCTLWEAYANLHTAVNEEKHRVPTFPDRVLKIPRAVPVLKMDAPSSSTTLAQYDNESKKNYGSQPPSSSTSLAQYDSNSKKIYGSQPNFNMQYIPREDFPDWWQVRKLKSSSSSEDVASSNQKERNVNHTTSKISWEFPESSSSEEEENLDDYDWFAGNISRSQSEQLLRQKGKEGAFMVRNSSQVGMYTVSLFSKAVNDKKGTVKHYHVHTNAENKLYLAENYCFDSIPKLIHYHQHNSAGMITRLRHPVSTKANKVPDSVSLGNGIWELKREEITLLKELGSGQFGVVQLGKWKGQYDVAVKMIKEGSMSEDEFFQEAQTMMKLSHPKLVKFYGVCSKEYPIYIVTEYISNGCLLNYLRSHGKGLEPSQLLEMCYDVCEGMAFLESHQFIHRDLAARNCLVDRDLCVKVSDFGMTRYVLDDQYVSSVGTKFPVKWSAPEVFHYFKYSSKSDVWAFGILMWEVFSLGKQPYDLYDNSQVVLKVSQGHRLYRPHLASDTIYQIMYSCWHELPEKRPTFQQLLSSIEPLREKDKH |

From article PMC6933376
